The assay deals with T1, Grb2-associated binder 1 (human (endogenous in Huh7-X and Hep3B)) (UniProt Q13480).
T1 sequence: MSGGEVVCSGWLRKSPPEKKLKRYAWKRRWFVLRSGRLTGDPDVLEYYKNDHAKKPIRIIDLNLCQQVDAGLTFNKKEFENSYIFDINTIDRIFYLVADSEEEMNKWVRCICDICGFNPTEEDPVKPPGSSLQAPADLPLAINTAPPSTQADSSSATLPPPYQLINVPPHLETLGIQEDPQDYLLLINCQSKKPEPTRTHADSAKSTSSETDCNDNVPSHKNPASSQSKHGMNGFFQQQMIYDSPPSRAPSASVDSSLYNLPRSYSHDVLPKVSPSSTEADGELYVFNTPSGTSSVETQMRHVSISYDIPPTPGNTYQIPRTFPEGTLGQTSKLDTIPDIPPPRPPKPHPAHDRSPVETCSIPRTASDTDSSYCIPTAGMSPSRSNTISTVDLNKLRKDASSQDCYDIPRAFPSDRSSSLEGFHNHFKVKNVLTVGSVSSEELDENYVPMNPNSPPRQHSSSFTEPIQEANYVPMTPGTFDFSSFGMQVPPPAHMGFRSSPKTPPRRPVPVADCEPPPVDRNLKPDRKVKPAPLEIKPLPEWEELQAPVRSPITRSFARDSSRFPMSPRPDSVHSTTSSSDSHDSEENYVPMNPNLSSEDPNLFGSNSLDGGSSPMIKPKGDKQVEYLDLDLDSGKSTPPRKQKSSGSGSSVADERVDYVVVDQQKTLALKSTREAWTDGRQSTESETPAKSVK
Kind of assay: co-IP; endogenous Gab1 precipitated overnight with anti-Gab1 antibodies and protein A/G PLUS-agarose from Huh7-X and Hep3B cell extracts (150 mM NaCl, 10 mM HEPES pH 7.5, 1% CHAPS); cells serum-starved 24 h, then EGF 50 ng/ml for 10 min; blots for SHP2, EGFR, Gab1.

These are yes or no findings as the source states them, for the method shown. Binding seen in cells or lysates may run through a third protein. Some results given as binding are weak or reduced against the parent protein; the word gives no strength.

In the case of “EGFR (from UniProt P00533 25-1210) (receptor)”, the binding result is recorded as “binds”.
